PubChem BioAssay AID493246 | Drosophila RNAi Screening Center | 2011

Assay: 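Identify essential fly genes by loss of cell viability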 (primary screen)
Cells: Drosophila Kc and S2R+ cells
Knock-down reagent: long dsRNA against Drosophila genes
Read-out: 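Raw, unnormalised count of remaining cells in each well; per-plate z-scores of cell number underlie the calls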
Direction: Kc cell number and S2R+ cell number: higher = more cells remaining
Hit rule: 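Active when the per-plate z-score of cell number is 3 or more in the direction of fewer cells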
The deposit covers about 21,000 reagents; this is a random part of those that have a named target and a result. Over the whole deposit, 429 (2%) got an active call. 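Values are raw and not normalised between plates; calls rest on per-plate z-scores that were not deposited.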 Unmarked entries are inactive. The numbers tell different reagents against one gene apart. A plus sign joins genes that one reagent is predicted to hit. The record does not give: the amount of reagent, the time to read-out.

Against CSN1b (GeneID 40063), the values are Kc cell number, rep 1 = 1.37e6; Kc cell number, rep 2 = 1.42e6; S2R+ cell number, rep 1 = 9.43e5; S2R+ cell number, rep 2 = 1.03e6.
CG9636 (GeneID 40967) gave Kc cell number, rep 1 = 1.57e6; Kc cell number, rep 2 = 1.61e6; S2R+ cell number, rep 1 = 1.25e6; S2R+ cell number, rep 2 = 1.27e6.
Depletion of CG15084 (GeneID 37178) came out at: Kc cell number, rep 1 = 1.52e6; Kc cell number, rep 2 = 1.51e6; S2R+ cell number, rep 1 = 1.11e6; S2R+ cell number, rep 2 = 1.21e6.
Against CG32532 (GeneID 32943) #1, the values are Kc cell number, rep 1 = 1.53e6; Kc cell number, rep 2 = 1.56e6; S2R+ cell number, rep 1 = 1.08e6; S2R+ cell number, rep 2 = 1.24e6.
CG32532 (GeneID 32943) #2 scored Kc cell number, rep 1 = 1.55e6; Kc cell number, rep 2 = 1.56e6; S2R+ cell number, rep 1 = 1.10e6; S2R+ cell number, rep 2 = 1.21e6.
After knock-down of CG32532 (GeneID 32943) #3 the results were Kc cell number, rep 1 = 1.56e6; Kc cell number, rep 2 = 1.58e6; S2R+ cell number, rep 1 = 1.11e6; S2R+ cell number, rep 2 = 1.25e6.
For CG13775 (GeneID 33975), the entry reads Kc cell number, rep 1 = 1.76e6; Kc cell number, rep 2 = 1.83e6; S2R+ cell number, rep 1 = 1.31e6; S2R+ cell number, rep 2 = 1.47e6.
Silencing of CG42824 + CG42823 came out at: Kc cell number, rep 1 = 1.47e6; Kc cell number, rep 2 = 1.50e6; S2R+ cell number, rep 1 = 1.01e6; S2R+ cell number, rep 2 = 1.13e6.
With knock-down of CG31955 (GeneID 319045), the screen gave Kc cell number, rep 1 = 1.89e6; Kc cell number, rep 2 = 1.76e6; S2R+ cell number, rep 1 = 1.19e6; S2R+ cell number, rep 2 = 1.42e6.
ru (GeneID 44856) gave Kc cell number, rep 1 = 1.42e6; Kc cell number, rep 2 = 1.28e6; S2R+ cell number, rep 1 = 9.92e5; S2R+ cell number, rep 2 = 1.28e6.
Depletion of clt (GeneID 117300) gave: Kc cell number, rep 1 = 1.46e6; Kc cell number, rep 2 = 1.54e6; S2R+ cell number, rep 1 = 1.21e6; S2R+ cell number, rep 2 = 3.37e5.
For DIP-epsilon (GeneID 7354433) #1, the entry reads Kc cell number, rep 1 = 1.69e6; Kc cell number, rep 2 = 1.71e6; S2R+ cell number, rep 1 = 1.12e6; S2R+ cell number, rep 2 = 1.27e6.
For DIP-epsilon (GeneID 7354433) #2, the entry reads Kc cell number, rep 1 = 1.59e6; Kc cell number, rep 2 = 1.81e6; S2R+ cell number, rep 1 = 1.22e6; S2R+ cell number, rep 2 = 1.32e6.
Knock-down of Mybbp1A (GeneID 31010) came out at: Kc cell number, rep 1 = 5.21e5; S2R+ cell number, rep 1 = 8.59e5.
For CG13053 (GeneID 50274), the entry reads Kc cell number, rep 1 = 1.33e6; Kc cell number, rep 2 = 1.46e6; S2R+ cell number, rep 1 = 1.30e6; S2R+ cell number, rep 2 = 1.40e6.
Polr1D + DCTN6-p27 gave Kc cell number, rep 1 = 1.54e6; Kc cell number, rep 2 = 1.57e6; S2R+ cell number, rep 1 = 1.22e6; S2R+ cell number, rep 2 = 3.19e5.
CG8132 (GeneID 41121) showed Kc cell number, rep 1 = 1.47e6; Kc cell number, rep 2 = 1.63e6; S2R+ cell number, rep 1 = 1.23e6; S2R+ cell number, rep 2 = 1.38e6.
For ppk17 (GeneID 35006), the values are Kc cell number, rep 1 = 1.51e6; Kc cell number, rep 2 = 1.55e6; S2R+ cell number, rep 1 = 1.34e6; S2R+ cell number, rep 2 = 1.41e6.
With knock-down of sll (GeneID 42115) the results were Kc cell number, rep 1 = 1.50e6; Kc cell number, rep 2 = 1.55e6; S2R+ cell number, rep 1 = 1.24e6; S2R+ cell number, rep 2 = 1.26e6.
CG9649 (GeneID 41727) gave Kc cell number, rep 1 = 1.73e6; Kc cell number, rep 2 = 1.83e6; S2R+ cell number, rep 1 = 1.25e6; S2R+ cell number, rep 2 = 1.28e6.
For ninaB (GeneID 41678) the deposit lists Kc cell number, rep 1 = 1.22e6; Kc cell number, rep 2 = 1.30e6; S2R+ cell number, rep 1 = 1.12e6; S2R+ cell number, rep 2 = 1.24e6.

Taken from above:
CG9636 (GeneID 40967), S2R+ cell number, rep 1 = 1.25e6
Entry of CSN1b (GeneID 40063) under “Kc cell number, rep 2”: 1.42e6
